Laboratory results: patent publication US12729225B2, “Non-canonical SWI/SNF complex and uses thereof” (Dana-Farber Cancer Institute, Inc., priority 2018, dated 2026)

System: mSWI/SNF complexes
Test: mSWI/SNF complex purification with HA-tagged baits and mass spectrometry (peptide counts)
Parameters: species or system human
[1] = 293_HA-BRD7: HA-BRD7 bait purification, total peptide count per co-purified protein
[2] = 293_HA-BRD7: HA-BRD7 bait purification, unique peptide count per co-purified protein

Molecule	Total [1]	Unique [2]	Total (total peptide count of the co-purified protein, 293_HA-BRD9 (HA-BRD9 bait, mass spectrometry), Table 3b)	Unique (unique peptide count of the co-purified protein, 293_HA-BRD9 (HA-BRD9 bait, mass spectrometry), Table 3b)	Total (293_HA-DPF2 purification, total peptides)	Unique (293_HA-DPF2 purification, unique peptides)
PHGDH (protein, UniProt O43175 2-533, looked up) D-3-phosphoglycerate …: AFANLRKVLISDSLDPCCRKILQDGGLQVVEKQNLSKEELIAELQDCEGLIVRSATKVTADVINAAEKLQVVGRAGTGVDNVDLEAATRKGILVMNTPNGNSLSAAELTCGMIMCLARQIPQATASMKDGKWERKKFMGTELNGKTLGILGLGRIGREVATRMQSFGMKTIGYDPIISPEVSASFGVQQLPLEEIWPLCDFITVHTPLLPSTTGLLNDNTFAQCKKGVRVVNCARGGIVDEGALLRALQSGQCAGAALDVFTEEPPRDRALVDHENVISCPHLGASTKEAQSRCGEEIAVQFVDMVKGKSLTGVVNAQALTSAFSPHTKPWIGLAEALGTLMRAWAGSPKGTIQVITQGTSLKNAGNCLSPAVIVGLLKEASKQADVNLVNAKLLVKEAGLNVTTSHSPAAPGEQGFGECLLAVALAGAPYQAVGLVQGTTPVLQGLNGAVFRPEVPLRRDLPLLLFRTQTSDPAMLPTMIGLLAEAGVRLLSYQTSLVSDGETWHVMGISSLLPSLEAWKQHVTEAFQFHF	7	7	1	1	–	–
HNRNPH1 (protein, UniProt P31943 1-449, looked up) Heterogeneous nuclear …: MMLGTEGGEGFVVKVRGLPWSCSADEVQRFFSDCKIQNGAQGIRFIYTREGRPSGEAFVELESEDEVKLALKKDRETMGHRYVEVFKSNNVEMDWVLKHTGPNSPDTANDGFVRLRGLPFGCSKEEIVQFFSGLEIVPNGITLPVDFQGRSTGEAFVQFASQEIAEKALKKHKERIGHRYIEIFKSSRAEVRTHYDPPRKLMAMQRPGPYDRPGAGRGYNSIGRGAGFERMRRGAYGGGYGGYDDYNGYNDGYGFGSDRFGRDLNYCFSGMSDHRYGDGGSTFQSTTGHCVHMRGLPYRATENDIYNFFSPLNPVRVHIEIGPDGRVTGEADVEFATHEDAVAAMSKDKANMQHRYVELFLNSTAGASGGAYEHRYVELFLNSTAGASGGAYGSQMMGGMGLSNQSSYGGPASQQLSGGYGGGYGGQSSMSGYDQVLQENSSDFQSNIA	10	10	–	–	2	2
POP1 (protein, UniProt Q99575 1-1024, looked up) Ribonucleases P/MRP protein …: MSNAKERKHAKKMRNQPTNVTLSSGFVADRGVKHHSGGEKPFQAQKQEPHPGTSRQRQTRVNPHSLPDPEVNEQSSSKGMFRKKGGWKAGPEGTSQEIPKYITASTFAQARAAEISAMLKAVTQKSSNSLVFQTLPRHMRRRAMSHNVKRLPRRLQEIAQKEAEKAVHQKKEHSKNKCHKARRCHMNRTLEFNRRQKKNIWLETHIWHAKRFHMVKKWGYCLGERPTVKSHRACYRAMTNRCLLQDLSYYCCLELKGKEEEILKALSGMCNIDTGLTFAAVHCLSGKRQGSLVLYRVNKYPREMLGPVTFIWKSQRTPGDPSESRQLWIWLHPTLKQDILEEIKAACQCVEPIKSAVCIADPLPTPSQEKSQTELPDEKIGKKRKRKDDGENAKPIKKIIGDGTRDPCLPYSWISPTTGIIISDLTMEMNRFRLIGPLSHSILTEAIKAASVHTVGEDTEETPHRWWIETCKKPDSVSLHCRQEAIFELLGGITSPAEIPAGTILGLTVGDPRINLPQKKSKALPNPEKCQDNEKVRQLLLEGVPVECTHSFIWNQDICKSVTENKISDQDLNRMRSELLVPGSQLILGPHESKIPILLIQQPGKVTGEDRLGWGSGWDVLLPKGWGMAFWIPFIYRGVRVGGLKESAVHSQYKRSPNVPGDFPDCPAGMLFAEEQAKNLLEKYKRRPPAKRPNYVKLGTLAPFCCPWEQLTQDWESRVQAYEEPSVASSPNGKESDLRRSEVPCAPMPKKTHQPSDEVGTSIEHPREAEEVMDAGCQESAGPERITDQEASENHVAATGSHLCVLRSRKLLKQLSAWCGPSSEDSRGGRRAPGRGQQGLTREACLSILGHFPRALVWVSLSLLSKGSPEPHTMICVPAKEDFLQLHEDWHYCGPQESKHSDPFRSKILKQKEKKKREKRQKPGRASSDGPAGEEPVAGQEALTLGLWSGPLPRVTLHCSRTLLGFVTQGDFSMAVGCGEALGFVSLTGLLDMLSSQPAAQRGLVLLRPPASLQYRFARIAIEV	10	10	–	–	–	–
SUCLG2 (protein, UniProt Q96I99 38-432, looked up) Succinate--CoA ligase …: LNLQEYQSKKLMSDNGVRVQRFFVADTANEALEAAKRLNAKEIVLKAQILAGGRGKGVFNSGLKGGVHLTKDPNVVGQLAKQMIGYNLATKQTPKEGVKVNKVMVAEALDISRETYLAILMDRSCNGPVLVGSPQGGVDIEEVAASNPELIFKEQIDIFEGIKDSQAQRMAENLGFVGPLKSQAADQITKLYNLFLKIDATQVEVNPFGETPEGQVVCFDAKINFDDNAEFRQKDIFAMDDKSENEPIENEAAKYDLKYIGLDGNIACFVNGAGLAMATCDIIFLNGGKPANFLDLGGGVKEAQVYQAFKLLTADPKVEAILVNIFGGIVNCAIIANGITKACRELELKVPLVVRLEGTNVQEAQKILNNSGLPITSAIDLEDAAKKAVASVAKK	10	10	–	–	–	–
RRP1B (protein, UniProt Q14684 1-758, looked up) Ribosomal RNA processing …: MAPAMQPAEIQFAQRLASSEKGIRDRAVKKLRQYISVKTQRETGGFSQEELLKIWKGLFYCMWVQDEPLLQEELANTIAQLVHAVNNSAAQHLFIQTFWQTMNREWKGIDRLRLDKYYMLIRLVLRQSFEVLKRNGWEESRIKVFLDVLMKEVLCPESQSPNGVRFHFIDIYLDELSKVGGKELLADQNLKFIDPFCKIAAKTKDHTLVQTIARGVFEAIVDQSPFVPEETMEEQKTKVGDGDLSAEEIPENEVSLRRAVSKKKTALGKNHSRKDGLSDERGRDDCGTFEDTGPLLQFDYKAVADRLLEMTSRKNTPHFNRKRLSKLIKKFQDLSEGSSISQLSFAEDISADEDDQILSQGKHKKKGNKLLEKTNLEKEKGSRVFCVEEEDSESSLQKRRRKKKKKHHLQPENPGPGGAAPSLEQNRGREPEASGLKALKARVAEPGAEATSSTGEESGSEHPPAVPMHNKRKRPRKKSPRAHREMLESAVLPPEDMSQSGPSGSHPQGPRGSPTGGAQLLKRKRKLGVVPVNGSGLSTPAWPPLQQEGPPTGPAEGANSHTTLPQRRRLQKKKAGPGSLELCGLPSQKTASLKKRKKMRVMSNLVEHNGVLESEAGQPQALGSSGTCSSLKKQKLRAESDFVKFDTPFLPKPLFFRRAKSSTATHPPGPAVQLNKTPSSSKKVTFGLNRNMTAEFKKTDKSILVSPTGPSRVAFDPEQKPLHGVLKTPTSSPASSPLVAKKPLTTTPRRRPRAMDFF	10	10	–	–	–	–
